# Data published in PubChem BioAssay AID330 (DTP/NCI, 2004).
# The list shows only some results of the screen, not a fair sample: it is rich in T/C values a quarter to a half above the control, in often repeated tests (any T/C) and in doses without a T/C. Further doses and runs are listed elsewhere. T/C: endpoint of the treated group in % of that of the vehicle group. Some entries give survivors of the animals treated and no T/C: the source files T/C as zero there, which appears to mark a toxic dose or a test without result, not a measured value. Some survivor counts are full or nearly so, which does not show that the dose was tolerated: survival well below the control is almost never listed, so the zero probably covers shortened survival too. Survivors were counted at the toxicity check, usually on the fifth day, unless a day is given; later deaths do not show. Schedule codes are those of the source, read here as Q, the interval in days (D) or hours (H), X, the number of doses. Some entries hold several experiments; the values are given in rising order. Where survival is the endpoint, this PubChem deposit counts one and a half times the control or more as active, and values a quarter to a half above the control carry no call in these data; other NCI protocols may use other cut-offs. Some T/C values carry the count of animals alive at the toxicity check (mostly the fifth day); where none is given, no animal had died by that day.
# System: P388 leukemia ip, CD2F1 mice, survival T/C
# Assay: NCI In Vivo Anticancer Drug Screen. Data for tumor model P388 Leukemia (intraperitoneal) in CD2F1 (CDF1) mice
# Conditions: T/C endpoint: median survival time, higher T/C = longer survival
# [1] = dose: 400.0 mg/kg/injection, schedule: Q01DX009 (ip), vehicle: saline
# [2] = dose: 240.0 mg/kg/injection, schedule: Q01DX005 (ip), vehicle: Klucel (hydroxypropylcellulose) (HPC)
# [3] = dose: 200.0 mg/kg/injection, schedule: Q01DX005 (ip), vehicle: Klucel (hydroxypropylcellulose) (HPC)
# [4] = dose: 200.0 mg/kg/injection, schedule: Q04DX003 (ip), vehicle: saline with Tween-80
# [5] = dose: 400.0 mg/kg/injection, schedule: Q04DX003 (ip), vehicle: saline with Tween-80
# [6] = dose: 240.0 mg/kg/injection, schedule: Q01DX005 (ip), vehicle: saline with Tween-80
# [7] = dose: 25.0 mg/kg/injection, schedule: Q04DX003 (ip), vehicle: saline
# [8] = dose: 50.0 mg/kg/injection, schedule: Q01DX005 (ip), vehicle: saline with Tween-80
# [9] = dose: 100.0 mg/kg/injection, schedule: Q01DX005 (ip), vehicle: saline with Tween-80
# [10] = dose: 200.0 mg/kg/injection, schedule: Q01DX005 (ip), vehicle: saline with Tween-80
compound,measurement,setting,value
CC1CCC(C(C)C)C(NC(=O)C[n+]2cccc(C(N)=O)c2)C1 (stereo not drawn),survivor count,"dose: 100.0 mg/kg/injection, schedule: Q04DX002 (ip), vehicle: saline with Tween-80",3 of 6
same,survivor count,"dose: 200.0 mg/kg/injection, schedule: Q04DX002 (ip), vehicle: saline with Tween-80",0 of 6
same,survivor count,"dose: 400.0 mg/kg/injection, schedule: Q04DX002 (ip), vehicle: saline with Tween-80",0 of 6
CCCCCCCCCCCCNCC(=O)O,survivor count,"dose: 100.0 mg/kg/injection, schedule: Q01DX009 (ip), vehicle: saline",0 of 6 and 1 of 6
same,survivor count,"dose: 200.0 mg/kg/injection, schedule: Q01DX009 (ip), vehicle: saline",0 of 6
same,survivor count,[1],0 of 6
Cc1c(Br)c(C)[n+]([O-])n1O,survivor count,[2],3 of 6
Cc1cc2c(cc1C)NC1=C(N2)OC(c2cccc(O)c2)C1=O (stereo not drawn),survivor count,"dose: 60.0 mg/kg/injection, schedule: Q01DX005 (ip), vehicle: Klucel (hydroxypropylcellulose) (HPC)",6 of 6
same,survivor count,"dose: 120.0 mg/kg/injection, schedule: Q01DX005 (ip), vehicle: Klucel (hydroxypropylcellulose) (HPC)",6 of 6
same,survivor count,[2],6 of 6
O=C(Nc1ccccc1)/C(N=Nc1ccc([N+](=O)[O-])cc1Cl)=N/Nc1ccc([N+](=O)[O-])cc1Cl,survivor count,[3],6 of 6
CC(C)=CCCC(C)=C(C#N)C#N,survivor count,[4],0 of 6
same,survivor count,[5],0 of 6
O=C(Oc1ccc[nH]c1=O)C1CC1,T/C,[1],126 % of control [4 of 6 alive]
CN(C)c1ccc(C(c2c(O)c3ccccc3oc2=O)c2c(O)c3ccccc3oc2=O)cc1,survivor count,"dose: 30.0 mg/kg/injection, schedule: Q01DX005 (ip), vehicle: saline with Tween-80",6 of 6
same,survivor count,"dose: 60.0 mg/kg/injection, schedule: Q01DX005 (ip), vehicle: saline with Tween-80",5 of 6 and 6 of 6
same,survivor count,"dose: 120.0 mg/kg/injection, schedule: Q01DX005 (ip), vehicle: saline with Tween-80",2 of 5
same,survivor count,[6],2 of 6
COCCOCCN1CCN(CCCN2c3ccccc3Sc3ccc(C(F)(F)F)cc32)CC1,survivor count,"dose: 6.0 mg/kg/injection, schedule: Q04DX003 (ip), vehicle: saline",1 of 6
same,T/C,[7],127 % of control
Cc1cc(-c2ccccc2)c2ccccc2c1N(CC(=O)O)S(=O)(=O)c1ccccc1,T/C,"dose: 50.0 mg/kg/injection, schedule: Q01DX009 (ip), vehicle: saline with Tween-80",130 % of control
same,T/C,"dose: 100.0 mg/kg/injection, schedule: Q01DX009 (ip), vehicle: saline with Tween-80",140 % of control
CN=S(=O)(OCCCCOS(=O)(=NC)c1ccc(C)cc1)c1ccc(C)cc1 (stereo not drawn),T/C,"dose: 100.0 mg/kg/injection, schedule: Q04DX003 (ip), vehicle: saline with Tween-80",125 % of control
same,T/C,[4],126 % of control
same,T/C,[5],131 % of control
COc1cc2ccc3c4cc(OC)c(OC)cc4c[n+](C)c3c2cc1O,T/C,"dose: 200.0 mg/kg/injection, schedule: Q04DX009 (ip), vehicle: Klucel (hydroxypropylcellulose) (HPC)",136 % of control [2 of 3 alive]
CCCCCN(CCCCC)CCCNc1c2c(nc3ccc(OC)cc13)CCCC2,survivor count,"dose: 50.0 mg/kg/injection, schedule: Q01DX005 (ip), vehicle: saline",0 of 5
same,survivor count,"dose: 100.0 mg/kg/injection, schedule: Q01DX005 (ip), vehicle: saline",0 of 5
same,survivor count,"dose: 200.0 mg/kg/injection, schedule: Q01DX005 (ip), vehicle: saline",0 of 5
CCCCCCCCCCCC[n+]1cc2ccccc2cc1C,T/C,"dose: 12.5 mg/kg/injection, schedule: Q01DX005 (ip), vehicle: saline with Tween-80",129 [4 of 5 alive] and 137 % of control
same,survivor count,"dose: 25.0 mg/kg/injection, schedule: Q01DX005 (ip), vehicle: saline with Tween-80",3 of 5 and 4 of 5
same,survivor count,[8],0 of 5
same,survivor count,[9],0 of 5
same,survivor count,[10],0 of 5
NSc1ccccn1,survivor count,"dose: 200.0 mg/kg/injection, schedule: Q01DX001 (ip), vehicle: saline with Tween-80",0 of 6
same,survivor count,"dose: 400.0 mg/kg/injection, schedule: Q01DX001 (ip), vehicle: saline with Tween-80",1 of 6
CN(C)c1ncnc2c1ncn2[C@H]1CCC[C@@H]1O,survivor count,"dose: 3.0 mg/kg/injection, schedule: Q01DX005 (ip), vehicle: Klucel (hydroxypropylcellulose) (HPC)",4 of 6
same,survivor count,"dose: 6.0 mg/kg/injection, schedule: Q01DX005 (ip), vehicle: Klucel (hydroxypropylcellulose) (HPC)",1 of 6
same,survivor count,"dose: 6.25 mg/kg/injection, schedule: Q01DX005 (ip), vehicle: Klucel (hydroxypropylcellulose) (HPC)",3 of 3
same,survivor count,"dose: 12.5 mg/kg/injection, schedule: Q01DX005 (ip), vehicle: Klucel (hydroxypropylcellulose) (HPC)",2 of 6
same,survivor count,"dose: 25.0 mg/kg/injection, schedule: Q01DX005 (ip), vehicle: Klucel (hydroxypropylcellulose) (HPC)",0 of 6
same,survivor count,"dose: 50.0 mg/kg/injection, schedule: Q01DX005 (ip), vehicle: Klucel (hydroxypropylcellulose) (HPC)",0 of 5
same,survivor count,"dose: 100.0 mg/kg/injection, schedule: Q01DX005 (ip), vehicle: Klucel (hydroxypropylcellulose) (HPC)",0 of 5
same,survivor count,[3],0 of 5
Cc1ccc(-n2c3nc(=O)n(C)c(=O)c-3nc3ccccc32)cc1C,survivor count,"dose: 400.0 mg/kg/injection, schedule: Q01DX001 (ip), vehicle: Klucel (hydroxypropylcellulose) (HPC)",0 of 6
C[n+]1c(-c2ccc(/C=N/NC(=O)c3ccc(C(=O)N/N=C/c4ccc(-c5cn6ccccc6[n+]5C)cc4)c(O)c3O)cc2)cn2ccccc21,survivor count,[10],0 of 6
CCSc1nc2ccc(N=Cc3ccc(NS(=O)(=O)c4ccccc4)cc3O)cc2s1,survivor count,"dose: 200.0 mg/kg/injection, schedule: Q01DX009 (ip), vehicle: Klucel (hydroxypropylcellulose) (HPC)",3 of 6
CCOC(=O)C1=C(C(=O)c2ccccc2)C(c2ccc(Cl)cc2Cl)C(C(=O)c2ccccc2)=C(C(=O)OCC)N1,survivor count,[6],0 of 6
COc1ccc(OC)c2c1nc(CBr)n2C,survivor count,"dose: 65.0 mg/kg/injection, schedule: Q01DX005 (ip), vehicle: DMSO",1 of 6
same,survivor count,"dose: 130.0 mg/kg/injection, schedule: Q01DX005 (ip), vehicle: DMSO",0 of 6
O=C(OCC(OC(=O)c1ccccc1)C(OC(=O)c1ccccc1)C(OC(=O)c1ccccc1)C(OC(=O)c1ccccc1)c1nn[nH]n1)c1ccccc1 (stereo not drawn),survivor count,[8],6 of 6
same,survivor count,[9],5 of 5
same,survivor count,[10],5 of 5
CCS(=O)(=O)[O][Sn]([CH2]C)([CH2]C)[O]S(=O)(=O)CC,T/C,"dose: 12.5 mg/kg/injection, schedule: Q04DX003 (ip), vehicle: saline",125 and 140 % of control
same,survivor count,[7],0 of 6
same,survivor count,"dose: 100.0 mg/kg/injection, schedule: Q04DX003 (ip), vehicle: saline",0 of 6
same,survivor count,"dose: 200.0 mg/kg/injection, schedule: Q04DX003 (ip), vehicle: saline",0 of 6
same,survivor count,"dose: 400.0 mg/kg/injection, schedule: Q04DX003 (ip), vehicle: saline",0 of 6
